Experimental data as given in patent US7649002B2, “(3,5-dimethylpiperidin-1yl)(4-phenylpyrrolidin-3-yl)methanone derivatives as MCR4 agonists” (Pfizer Inc, priority 2004, dated 2010).
Structures can show the parent of a compound that is named as a salt. Some of these results come from one statement about several compounds together.

Chains of the proteins cited; added tags and fusions are not shown. Lines headed by an entry give the natural chain unless they say otherwise; changes in a name come on top.
UniProt P33032: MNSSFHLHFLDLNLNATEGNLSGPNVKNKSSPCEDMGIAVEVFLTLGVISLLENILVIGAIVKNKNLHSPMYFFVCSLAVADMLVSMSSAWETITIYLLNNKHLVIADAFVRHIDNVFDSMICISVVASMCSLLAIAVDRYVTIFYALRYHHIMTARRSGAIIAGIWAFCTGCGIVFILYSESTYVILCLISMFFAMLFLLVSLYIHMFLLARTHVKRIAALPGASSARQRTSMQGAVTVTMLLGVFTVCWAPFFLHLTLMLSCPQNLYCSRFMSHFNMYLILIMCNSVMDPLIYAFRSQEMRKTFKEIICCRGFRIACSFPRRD
UniProt P32245, whole entry: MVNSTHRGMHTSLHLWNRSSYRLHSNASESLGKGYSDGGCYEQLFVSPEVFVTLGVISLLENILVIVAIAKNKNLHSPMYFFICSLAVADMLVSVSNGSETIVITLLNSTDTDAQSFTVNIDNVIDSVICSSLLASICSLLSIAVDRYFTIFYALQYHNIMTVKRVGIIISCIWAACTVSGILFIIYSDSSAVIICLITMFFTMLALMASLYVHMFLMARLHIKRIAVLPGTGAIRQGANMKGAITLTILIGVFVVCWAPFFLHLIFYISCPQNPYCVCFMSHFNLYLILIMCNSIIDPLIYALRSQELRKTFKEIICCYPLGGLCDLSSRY

Legend:
human MCR5 receptor = molecular target: T1, human MCR5 receptor (Homo sapiens, UniProt P33032); assay: MCR5 standard functional assay (Protocol D): CHO-K1-MC5R-CRE-β-lactamase reporter; assay type: cell-based; conditions: functional potencies, Protocols D and E
T1 construct: expressed in transfected cells
From the text: These cell lines were engineered using protocols akin to those outlined by Zaccolo et al (Zaccolo, M., (2000) Nature, 2(1); 25-29). Compound-induced activation of the MCR5 or MCR4 receptors in these two cell lines stimulated the production, and intracellular accumulation, of the enzyme β-lactamase. The quantity of β-lactamase enzyme produced was directly proportional to the degree to which the test compound activated the MCR5 or MCR4 receptors present on these cells and was quantified using the P-lactamase gene reporter analysis kit that is commercially available from Invitrogen Life Technologies. An in-depth description of this technology and assay protocols are available from the Invitrogen web site (www.invitrogen.com). The protocol listed below provides a summary of that assay methodology. The quantity of β-lactamase enzyme produced by compound-induced activation of the MCR5 or MCR4 receptors expressed in these cell lines was quantified using a LjI Biosystems Analyst™ HT 96.384 plate reader set to excite at a wave length of 405 nm, and measure the energy emitted at wave lengths of 450 nm and 530 nm. Cellular responses were quantified by dividing the measured energy emitted at a wavelength of 450 nm by the measured energy emitted at a wavelength of 530 nm. […] CCF4-AM was dissolved in 100% DMSO to give a final solution concentration of 1 mM. This solution was termed Solution A. Probenecid was dissolved in 200 mM NaOH to give a final solution concentration of 200 mM. This solution was termed Solution D. Composition of the β-lactamase assay dye solution: for 1072 μL of assay dye solution combine: 12 μL of Solution A, 60 μL of Solution B, 925 μL of Solution C and 75 μL of Solution D. […] Cells were grown in T225 vent cap flasks containing 50 ml of growth medium and maintained in a cell incubator at a temperature of 37° C. and in an environment containing 5% CO2. […]

human MCR4 receptor = molecular target: T2, human MCR4 receptor (Homo sapiens, UniProt P32245); assay: MCR4 improved functional assay (Protocol E): CHO-K1-MC4R-CRE-β-lactamase reporter; assay type: cell-based; conditions: versus both MCR1 and MCR5
T2 construct: expressed in transfected cells
From the text: (ii) MCR5 Standard Functional Assay Methodology and MCR4 Improved Functional Assay Methodology [Assay Protocol D and E Respectively] […] These cell lines were engineered using protocols akin to those outlined by Zaccolo et al (Zaccolo, M., (2000) Nature, 2(1); 25-29). Compound-induced activation of the MCR5 or MCR4 receptors in these two cell lines stimulated the production, and intracellular accumulation, of the enzyme β-lactamase. The quantity of β-lactamase enzyme produced was directly proportional to the degree to which the test compound activated the MCR5 or MCR4 receptors present on these cells and was quantified using the P-lactamase gene reporter analysis kit that is commercially available from Invitrogen Life Technologies. An in-depth description of this technology and assay protocols are available from the Invitrogen web site (www.invitrogen.com). The protocol listed below provides a summary of that assay methodology. The quantity of β-lactamase enzyme produced by compound-induced activation of the MCR5 or MCR4 receptors expressed in these cell lines was quantified using a LjI Biosystems Analyst™ HT 96.384 plate reader set to excite at a wave length of 405 nm, and measure the energy emitted at wave lengths of 450 nm and 530 nm. Cellular responses were quantified by dividing the measured energy emitted at a wavelength of 450 nm by the measured energy emitted at a wavelength of 530 nm. […] CCF4-AM was dissolved in 100% DMSO to give a final solution concentration of 1 mM. This solution was termed Solution A. Probenecid was dissolved in 200 mM NaOH to give a final solution concentration of 200 mM. This solution was termed Solution D. Composition of the β-lactamase assay dye solution: for 1072 μL of assay dye solution combine: 12 μL of Solution A, 60 μL of Solution B, 925 μL of Solution C and 75 μL of Solution D. […] Cells were grown in T225 vent cap flasks containing 50 ml of growth medium and maintained in a cell incubator at a temperature of 37° C. and in an environment containing 5% CO2. The composition of the growth medium for the CHO-K1-MC5R-CRE-β-lactamase was 90% v/v DMEM supplemented with; Glutamax-1, 25 mM HEPES, 10% v/v foetal calf serum (FCS), 1 mM sodium pyruvate, 0.1 mM non essential amino acids and 800 μg/ml genetic in. For the CHO-K1-MC4R-CRE-β-lactamase this growth media was further supplemented with […] Zeocin. Cells were harvested when they reached 80-90% confluency by first removing the existing growth medium and then washing with PBS that had been pre-warmed to a temperature of 37° C. This PBS was then removed and 5 ml of cell dissociation fluid added to the flask. These cells were incubated for 5 minutes in a cell incubator set at a temperature of 37° C. and in an environment containing 5% CO2 to detach the cells. When cells were detached, pre-warmed growth media was added, the cells re-suspended and mixed gently to achieve a single cell suspension by pipetting. This cell suspension was then used for experimentation, or transferred into a new T225 flask to perpetuate the cell culture. […] For each assay the cell plates were then retuned to a cell incubator maintained at a temperature of 37° C. and in an environment containing 5% CO2 overnight before performing the assay on the second assay day. […] For the MCR4 improved functional assay methodology the solution of cyclohexamide was not added. Subsequently, 10 μL of the test compound solution was transferred to the assay plate. […]

Row | Compound | selectivity for MCR4 over MCR5 (human MCR5 receptor) | selectivity for the MCR4 receptor as compared with the MCR1 and MCR5 receptors (human MCR4 receptor)
1 | CC(C)N1C[C@@H](C(=O)N2C[C@@H](C)[C@](O)(c3ccc(F)c(F)c3)[C@@H](C)C2)[C@H](c2ccc(F)cc2F)C1.Cl [Example 51, (3R,4R,5S)-4-(3,4-difluorophenyl)-1-{[(3S,4R)-4-(2,4-difluorophenyl)-1-isopropylpyrrolidin-3-yl]carbonyl}-3,5-dimethylpiperidin-4-ol hydrochloride] | greater than 10 times | –
2 | CCN1C[C@@H](C(=O)N2C[C@@H](C)[C@](O)(c3ccc(OC)cc3)[C@@H](C)C2)[C@H](c2ccc(F)cc2F)C1 [Example 14, (3R,4R,5S)-1-{[(3S,4R)-4-(2,4-difluorophenyl)-1-ethylpyrrolidin-3-yl]carbonyl}-4-(4-methoxyphenyl)-3,5-dimethylpiperidin-4-ol hydrochloride] | greater than 10 times | greater than 10 times
